Experimental data reported in patent US20200181284A1 (UNIVERSITY OF SOUTHERN CALIFORNIA, published 2020).
Changes are numbered by the printed parent chain.

How the values were obtained:
[1] = target: T1, glucocorticoid receptor (GR) (human, UniProt P04150 1-777); assay: proximity ligation assay, endogenous proteins, A549 cells; association depends on G9a/GLP (ternary complex)
T1 construct: hGR expressed from a plasmid in Cos-7 cells (co-immunoprecipitation) or endogenous GR of A549 cells (co-immunoprecipitation, PLA); also called hGR; NR3C1
T1 sequence (looked up): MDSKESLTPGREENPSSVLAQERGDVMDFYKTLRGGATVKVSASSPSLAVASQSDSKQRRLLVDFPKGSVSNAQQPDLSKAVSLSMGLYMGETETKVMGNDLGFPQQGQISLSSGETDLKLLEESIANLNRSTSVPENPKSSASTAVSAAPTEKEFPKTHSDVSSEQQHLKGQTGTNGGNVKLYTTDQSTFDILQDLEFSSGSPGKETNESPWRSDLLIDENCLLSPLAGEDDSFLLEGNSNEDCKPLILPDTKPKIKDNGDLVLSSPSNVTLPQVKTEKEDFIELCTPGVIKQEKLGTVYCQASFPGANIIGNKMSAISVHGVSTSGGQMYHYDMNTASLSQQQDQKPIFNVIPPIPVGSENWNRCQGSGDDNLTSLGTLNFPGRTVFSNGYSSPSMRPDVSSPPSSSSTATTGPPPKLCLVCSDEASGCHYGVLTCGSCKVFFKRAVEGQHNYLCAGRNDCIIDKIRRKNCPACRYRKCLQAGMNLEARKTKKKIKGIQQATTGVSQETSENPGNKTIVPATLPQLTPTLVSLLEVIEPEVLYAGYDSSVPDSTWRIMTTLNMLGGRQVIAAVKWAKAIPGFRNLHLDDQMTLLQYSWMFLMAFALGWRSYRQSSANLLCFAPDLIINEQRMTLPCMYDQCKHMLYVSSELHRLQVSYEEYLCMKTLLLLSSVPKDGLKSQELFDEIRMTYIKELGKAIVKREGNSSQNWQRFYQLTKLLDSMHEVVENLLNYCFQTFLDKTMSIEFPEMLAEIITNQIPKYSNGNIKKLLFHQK
Description: Scale bar represents 10 μm. […] Scale bar represents 10 μm. […] Scale bar represents 10 μm.

[2] = target: T2, full length HA-hG9a K185R mutant (human, UniProt Q96KQ7 1-1210); assay: proximity ligation assay (HA and HP1γ antibodies), A549 rtta cells; weaker than wild type
T2 construct: Expressed in Cos-7 cells or from a doxycycline-inducible transgene in A549 rtta cells; also called HA-G9a K185R
T2 sequence (looked up): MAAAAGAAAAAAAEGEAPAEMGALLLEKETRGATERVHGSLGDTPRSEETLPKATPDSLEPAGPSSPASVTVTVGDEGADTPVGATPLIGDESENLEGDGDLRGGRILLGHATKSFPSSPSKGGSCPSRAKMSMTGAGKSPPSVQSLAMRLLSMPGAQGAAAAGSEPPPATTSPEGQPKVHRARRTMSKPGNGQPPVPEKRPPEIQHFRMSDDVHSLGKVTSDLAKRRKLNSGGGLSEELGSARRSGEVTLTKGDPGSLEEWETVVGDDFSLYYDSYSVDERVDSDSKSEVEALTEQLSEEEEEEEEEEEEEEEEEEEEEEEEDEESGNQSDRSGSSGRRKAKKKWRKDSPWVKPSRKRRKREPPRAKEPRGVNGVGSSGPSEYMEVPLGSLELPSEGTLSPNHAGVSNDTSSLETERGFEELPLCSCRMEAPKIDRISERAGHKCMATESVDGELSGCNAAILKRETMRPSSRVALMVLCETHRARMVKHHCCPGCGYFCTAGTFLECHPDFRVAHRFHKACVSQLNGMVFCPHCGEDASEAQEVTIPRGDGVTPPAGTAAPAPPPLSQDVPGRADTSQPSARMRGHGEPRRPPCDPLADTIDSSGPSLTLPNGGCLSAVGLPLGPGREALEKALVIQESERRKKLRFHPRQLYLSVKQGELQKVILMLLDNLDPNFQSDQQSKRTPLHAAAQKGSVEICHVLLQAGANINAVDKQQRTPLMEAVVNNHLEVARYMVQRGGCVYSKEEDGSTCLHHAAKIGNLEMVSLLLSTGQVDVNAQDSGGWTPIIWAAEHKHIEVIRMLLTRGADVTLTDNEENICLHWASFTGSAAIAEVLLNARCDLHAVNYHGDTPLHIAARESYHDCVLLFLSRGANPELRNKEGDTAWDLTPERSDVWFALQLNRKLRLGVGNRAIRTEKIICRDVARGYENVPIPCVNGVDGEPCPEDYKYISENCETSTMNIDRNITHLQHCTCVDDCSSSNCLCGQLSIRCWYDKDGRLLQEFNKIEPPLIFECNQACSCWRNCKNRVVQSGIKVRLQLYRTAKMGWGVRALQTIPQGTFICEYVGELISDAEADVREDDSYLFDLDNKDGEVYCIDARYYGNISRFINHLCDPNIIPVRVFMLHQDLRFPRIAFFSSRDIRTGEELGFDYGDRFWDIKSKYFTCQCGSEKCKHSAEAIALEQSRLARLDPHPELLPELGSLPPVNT

[3] = target: T3, endogenous G9a of A549 cells (human, UniProt Q96KQ7 2-1210, limits assumed); assay: proximity ligation assay, endogenous proteins, A549 cells
T3 construct: also called EHMT2
T3 sequence (looked up): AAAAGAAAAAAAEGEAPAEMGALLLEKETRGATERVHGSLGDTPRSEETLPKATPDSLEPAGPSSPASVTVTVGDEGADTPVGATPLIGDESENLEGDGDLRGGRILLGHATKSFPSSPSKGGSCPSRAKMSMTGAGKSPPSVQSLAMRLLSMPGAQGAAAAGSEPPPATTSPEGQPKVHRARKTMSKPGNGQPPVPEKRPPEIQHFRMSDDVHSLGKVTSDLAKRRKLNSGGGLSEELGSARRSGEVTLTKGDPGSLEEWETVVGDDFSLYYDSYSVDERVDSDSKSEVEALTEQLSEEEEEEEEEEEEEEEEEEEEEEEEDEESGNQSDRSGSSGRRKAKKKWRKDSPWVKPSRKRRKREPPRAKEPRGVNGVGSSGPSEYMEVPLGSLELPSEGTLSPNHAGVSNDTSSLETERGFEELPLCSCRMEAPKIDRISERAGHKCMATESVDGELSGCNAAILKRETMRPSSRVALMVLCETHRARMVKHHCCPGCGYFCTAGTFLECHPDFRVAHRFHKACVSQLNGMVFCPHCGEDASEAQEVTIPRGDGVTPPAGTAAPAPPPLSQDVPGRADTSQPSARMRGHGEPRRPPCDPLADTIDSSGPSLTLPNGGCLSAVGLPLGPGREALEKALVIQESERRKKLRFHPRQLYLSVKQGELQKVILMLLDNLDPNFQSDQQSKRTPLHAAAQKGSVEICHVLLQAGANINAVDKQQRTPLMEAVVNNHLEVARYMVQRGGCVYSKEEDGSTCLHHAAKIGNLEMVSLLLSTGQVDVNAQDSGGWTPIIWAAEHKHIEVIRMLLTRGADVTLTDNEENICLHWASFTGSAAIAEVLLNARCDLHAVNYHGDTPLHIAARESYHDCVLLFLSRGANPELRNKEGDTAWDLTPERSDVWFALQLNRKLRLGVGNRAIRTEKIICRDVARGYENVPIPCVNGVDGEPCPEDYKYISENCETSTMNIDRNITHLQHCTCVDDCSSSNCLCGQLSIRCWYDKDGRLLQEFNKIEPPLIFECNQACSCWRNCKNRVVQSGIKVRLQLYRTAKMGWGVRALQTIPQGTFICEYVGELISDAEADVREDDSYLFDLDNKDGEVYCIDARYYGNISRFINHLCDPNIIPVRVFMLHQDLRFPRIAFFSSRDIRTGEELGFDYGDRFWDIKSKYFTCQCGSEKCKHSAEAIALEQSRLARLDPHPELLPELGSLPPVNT

[4] = target: T4, full length HA-hG9a wild type (human, UniProt Q96KQ7 1-1210, in cells methylated on K185 and phosphorylated on T186 (as detected with pan-methyllysine and pan-phosphothreonine antibodies)); assay: proximity ligation assay (HA and HP1γ antibodies), A549 rtta cells
T4 construct: Expressed from pSG5.HA-hG9a in Cos-7 cells, or from a doxycycline-inducible transgene in A549 rtta cells; also called EHMT2; KMT1C
T4 sequence (looked up): T2 sequence (looked up) with R185K

Measured: binding result

B1: heterochromatin protein 1 gamma (HP1γ), endogenous protein of A549 cells (other, human, UniProt Q13185 2-183, looked up)
chain: ASNKTTLQKMGKKQNGKSKKVEEAEPEEFVVEKVLDRRVVNGKVEYFLKWKGFTDADNTWEPEENLDCPELIEAFLNSQKAGKEKDGTKRKSLSDSESDDSKSKKKRDAADKPRGFARGLDPERIIGATDSSGELMFLMKWKDSDEADLVLAKEANMKCPQIVIAFYEERLTWHSCPEDEAQ
notes: Detected in fixed cells by proximity ligation assay; also called CBX3
binds: all assays above
